Measured data: PubChem BioAssay AID686943 (Drosophila RNAi Screening Center, 2013)

Aim: 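Fly genes whose loss alters ERK activation after insulin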 (primary screen)
System: Drosophila S2R+ haemocyte-like cells expressing YFP-tagged ERK (Rolled)
Knock-down reagent: long dsRNA against Drosophila genes
Conditions: insulin stimulation versus unstimulated cells; dose and duration not given
Measured: 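Antibody staining for doubly phosphorylated ERK divided by ERK-YFP signal, as plate z-scores, in insulin-treated and untreated cells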
Scale: replicate 1, z-score of dpERK with insulin: higher = more active ERK per ERK-YFP after insulin
The screen tested about 23,000 reagents; shown is a random part of those with a known target gene and a result. 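Extra replicates exist only for a retested subset of genes; insulin dose and duration not given; both raised and lowered dpERK matter.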 Reagents against one gene are numbered here. Not all columns of the deposit are shown. Not given: the amount of reagent, the time to read-out.

gene knocked down | dsRNA no. | replicate 1, z-score of dpERK with insulin
CG18810 (GeneID 59171) | 1 | -1.13
CG4025 (GeneID 31177) | 1 | 0.57
Rgk3 (GeneID 5740446) | 1 | 0.95
Rgk3 (GeneID 5740446) | 2 | 0.82
Rgk3 (GeneID 5740446) | 3 | -0.55
Rgk3 (GeneID 5740446) | 4 | -0.29
CG1113 (GeneID 40629) | 1 | -1.06
CG5937 (GeneID 31537) | 1 | 0.36
RluA-2 (GeneID 34440) | 1 | 1.18
laf (GeneID 40606) | 1 | -0.52
CG17717 (GeneID 31592) | 1 | -0.04
CG17343 (GeneID 35180) | 1 | -0.14
CG17343 (GeneID 35180) | 2 | -0.22
Tdg (GeneID 43796) | 1 | 0.02
Tdg (GeneID 43796) | 2 | 0.12
Ufc1 (GeneID 36762) | 1 | 0.01
CG11655 (GeneID 32472) | 1 | -0.72
CG14568 (GeneID 40418) | 1 | -0.17
CG40198 (GeneID 3354922) | 1 | -0.76
TfAP-2 (GeneID 40398) | 1 | 0.36
CG2964 (GeneID 33475) | 1 | 0.55
CG9377 (GeneID 34743) | 1 | 0
CG15530 (GeneID 43589) | 1 | 0.76
